Here are results for 61 molecules from PubChem BioAssay AID493014 (National Center for Advancing Translational Sciences (NCATS), 2011).

Some of the results follow. These are further read-outs of the screen, such as a control signal, another cell line or another target. No call is given for them. Most of these compounds were active or inconclusive in the main read-out, so they are no random draw. Potencies come from curve fits of mixed quality, noted in brackets.

A short description of the assay: qHTS Assay to Find Inhibitors of Chronic Active B-Cell Receptor Signaling. Particulars: ABC-DLBCL IkBa-CBG/CBR reporter, luminescence ratio (green luciferase fused to IkBa over red control in TMD8 lymphoma cells), 4 h. A digest of the protocol: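 TMD8 human ABC-DLBCL cells with doxycycline-inducible IκBα–green luciferase fusion and unfused red luciferase, in 0.5% FBS medium; compounds up to 46 uM, 4 h at 37C. Green/red luminescence ratio, filter-overlap corrected, fitted to concentration-response curves.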
In general terms: In qHTS, concentration-response curves come from the screen itself.

The mark [1] stands for this setting: measured here: CBR red luminescence, cell number.
Where [2] appears, read: measured here: IkBa-CBG green luminescence.

A word on the AC50: it is the concentration giving half of the maximal activity seen. Regarding `Cn1nc(-c2ccccc2)c2cc([N+](=O)[O-])ccc21`, the AC50 under setting [1] was 11.2 µM [falling, single point].

With `Cc1nc2c(-c3ccc(F)cc3)cnn2c(N)c1-c1ccc(F)cc1`, under setting [1], the AC50 is 2.51 µM [rising, partial curve].

Take `CCOc1cc(/C=N/Nc2nncc(-c3ccccc3)n2)ccc1O`: the AC50 under setting [1] was 2.24 µM [falling, full curve, poor fit].

For the molecule `Cc1cccc2c1-c1sc(C(=O)N3CCCCC3)cc1CO2`, the AC50 under setting [1] is 15.8 µM [falling, single point].

For the molecule `C=CCn1c(SCC(=O)Nc2ccc(Br)cc2)nc(O)c(CC)c1=O`, the AC50 under setting [1] was 15.8 µM [falling, single point].

Regarding `COc1ccccc1N(CC(=O)Nc1ccc(C(F)(F)F)cc1)S(C)(=O)=O`, the AC50 under setting [1] is 20 µM [falling, partial curve, poor fit].

Turning to `CCN1C(=O)/C(=C/c2nc3ccccc3c(=O)[nH]2)c2ccccc21`, under setting [1], the AC50 is 32.6 µM [falling, single point].

Take `Cc1ccc(C)c(N2CCN(S(=O)(=O)c3ccc4c(c3)NC(=O)CS4)CC2)c1`: the AC50 under setting [1] was 25.1 µM [falling, single point].

`COc1ccc(Cl)cc1NC(=O)CN(C)CC(=O)Nc1ccc(Br)cc1`: the AC50 under setting [1] was 28.2 µM [falling, single point].

For the molecule `Cc1cccc(S(=O)(=O)CC(=O)Nc2nc(-c3ccccc3)cs2)c1`, the concentration at half-maximal activity (AC50) under setting [1] was 2.06 µM [rising, partial curve, poor fit].

For the molecule `CCCCn1c(C)cc2c(c1=O)C1O[C@](c3ccsc3)(Cc3cc(OC)c(OC)cc31)O2`, the AC50 under setting [1] was 1.58 µM [falling, partial curve, poor fit].

With `CCOCCCNC(=S)NCCCNc1nc2c(C)c(C)ccc2cc1C#N`, under setting [1], the AC50 is 10 µM [falling, partial curve, poor fit].

For the molecule `COc1ccc(S(=O)(=O)Nc2ccc(S(=O)(=O)Nc3ccc(F)cc3)cc2)cc1C`, the AC50 under setting [1] was 4.11 µM [falling, partial curve, poor fit].

As for `CCN(C(=O)CSc1nnc(-c2ccc(F)cc2)c2ccccc12)C1CCS(=O)(=O)C1` (stereo not given), the half-maximal activity concentration (AC50) under setting [1] was 25.1 µM [falling, single point].

With `NC(=S)Nc1ccc(Cl)c(Cl)c1`, the AC50 under setting [1] is 3.55 µM [rising, partial curve, poor fit].

Turning to `COc1ccc(C(=O)NCc2nnc(SCC(=O)N3CCc4ccccc43)o2)cc1OC`, the AC50 under setting [1] is 0.00461 µM [falling, full curve, poor fit].

Consider `Cn1c2ccccc2c2nnc(SCC(N)=O)nc21`, for which the AC50 under setting [1] is 35.5 µM [falling, single point].

Consider `COc1cccc(OC)c1C(=O)Nc1ccc2c(c1)Cc1ccccc1-2`, for which, under setting [1], the AC50 was 6.31 µM [falling, single point].

As to `COc1cccc(-c2nnc(NC(=O)c3cccs3)s2)c1`, the half-maximal activity concentration (AC50) under setting [1] is 2.24 µM [falling, full curve, poor fit].

As for `COc1ccc(/C=N/NC(=O)c2ccncc2)cc1CSc1nc2ccccc2s1`, the AC50 under setting [1] was 0.731 µM [rising, partial curve, poor fit].

Regarding `COc1ccccc1CN1CCC(n2nccc2NC(=O)CCOc2ccccc2)CC1`, under setting [1], the AC50 was 17.8 µM [falling, single point].

As for `CSc1ccc(CN(C)C(=O)COc2ccc(C(=O)c3ccccc3)cc2)cc1`, the AC50 reads like this: under setting [1], 12.6 µM [rising, single point]; under setting [2], 28.2 µM [falling, single point].

With `COCCCN1C(=O)c2[nH]nc(-c3ccccc3O)c2C1c1ccc(Cl)cc1` (stereo not given), under setting [1], the AC50 was 7.31 µM [falling, partial curve, poor fit].

With `Cc1cccn2c(=O)c3cc(S(=O)(=O)c4ccc(Br)cc4)c(=N)n(C4CCCC4)c3nc12`, under setting [1], the half-maximal activity concentration (AC50) was 0.447 µM [rising, full curve, poor fit].

In the case of `COc1ccc(/C=N/Nc2nn3cnnc3c3ccccc23)cc1`, the AC50 under setting [1] is 12.6 µM [falling, partial curve, poor fit].

As for `Cc1ccc(Cn2ccc(NC(=O)c3cc(-c4cccs4)on3)n2)cc1`, under setting [1], the AC50 is 2.06 µM [falling, full curve].

As for `Cc1cccc2sc(N(CCCN(C)C)C(=O)c3ccc4ncsc4c3)nc12`, under setting [1], the AC50 is 11.2 µM [falling, partial curve, poor fit].

Take `COc1ccc(NC(=O)CSc2nc(SC)ns2)cc1`: under setting [1], the AC50 was 0.126 µM [rising, full curve, poor fit].

On to `COc1ccc(C(NCC(=O)Nc2c(C)cccc2C)c2ccccc2)cc1` (stereo not given), for which the AC50 under setting [1] was 35.5 µM [rising, single point].

With `COc1cc(OC)nc(Oc2ccc(N)c(C)c2)n1`, the AC50 under setting [1] is 35.5 µM [rising, single point].

For `CCOC(=O)c1sc(NC(=O)c2ccc(S(=O)(=O)N(C)C)cc2)nc1C`, the AC50 under setting [1] is 0.259 µM [falling, full curve, poor fit].

In the case of `Cc1cccc(NC(=O)CNC(=O)COC(=O)c2ccco2)c1C`, the AC50 under setting [1] was 6.51 µM [rising, single point].

For the molecule `CCC1CCCCN1S(=O)(=O)c1ccc(NC(=O)c2cccs2)cc1` (stereo not given), the concentration at half-maximal activity (AC50) under setting [1] was 10.3 µM [falling, partial curve, poor fit].

With `Oc1c(CN2CCN(c3ccc(F)cc3)CC2)cc(Cl)c2cccnc12`, the AC50 under setting [1] was 29.1 µM [rising, single point] and the concentration at half-maximal activity (AC50) under setting [2] is 32.6 µM [falling, partial curve, poor fit].

For the molecule `O=C(Nc1ccc2c(c1)N(Cc1ccccc1)C(=O)c1ccccc1S2)NC1CC1`, the concentration at half-maximal activity (AC50) under setting [1] was 25.9 µM [falling, partial curve, poor fit].

With `COc1cc(/C=N/Nc2snc(SC)c2C#N)ccc1O`, under setting [1], the AC50 was 1.58 µM [rising, partial curve].

On to `COc1ccc(C(=O)NC(=S)N2CCN(c3ccccc3OC)CC2)cc1`, for which the AC50 under setting [1] was 10 µM [rising, partial curve, poor fit].

Turning to `Cc1csc(NC(=O)c2ccc(S(C)(=O)=O)cc2)n1`, the AC50 under setting [1] is 0.501 µM [falling, partial curve, poor fit].

For the molecule `O=c1[nH]c(NCCCO)nc2c1C1(CCCC1)Cc1ccccc1-2`, under setting [1], the AC50 is 20.6 µM [falling, single point].

On to `COc1ccc(/C=C2\SC(=S)N(CCC(=O)N(CCO)Cc3ccccc3)C2=O)cc1OC`, for which the AC50 under setting [1] was 7.94 µM [falling, partial curve].

Regarding `O=C(CN1CCCc2ccccc21)NCc1ccccc1Cl`, under setting [1], the AC50 is 5.8 µM [falling, partial curve].

Regarding `COc1cc(/C=C2/CCC/C(=C\c3cc(O)c(OC)c(Cl)c3)C2=O)cc(Cl)c1O`, the AC50 under setting [1] is 3.16 µM [falling, partial curve, poor fit].

As to `CN1CCCC(OC(=O)c2ccc3c(c2)OCCO3)C1` (stereo not given), the AC50 under setting [1] was 0.58 µM [falling, full curve, poor fit].

Regarding `COc1cc(/C=C2\SC(=S)N(CCC(=O)Nc3cccc(O)c3)C2=O)cc(OC)c1OC`, the AC50 under setting [1] is 35.5 µM [falling, single point].

With `Cn1c(N2CCN(C(=O)Nc3ccc(C(F)(F)F)cc3)CC2)nc2ccccc21`, the AC50 under setting [1] was 20.6 µM [rising, partial curve, poor fit].

For the molecule `Cc1[nH][nH]c(=O)c1C(c1ccc(-c2ccc(C(=O)O)cc2)o1)c1c(C)[nH][nH]c1=O`, the AC50 under setting [1] was 10 µM [falling, partial curve].

As to `COc1cc2ncnc(NCc3ccccc3C)c2cc1OC`, the AC50 under setting [1] was 18.4 µM [falling, single point].

Turning to `COc1ccc(NC(=O)CCn2cccc2)cc1`, the AC50 under setting [1] is 0.794 µM [rising, partial curve, poor fit].

For the molecule `Cc1c(C(=O)OCC(=O)NC(C)c2ccccc2)oc2ccccc12` (stereo not given), the AC50 under setting [1] is 7.94 µM [falling, partial curve, poor fit].

For the molecule `CCn1cc(C(=O)NCc2ccco2)c(=O)c2cc(S(=O)(=O)N3CCc4ccccc4C3)ccc21`, the AC50 under setting [1] is 35.5 µM [falling, single point] and the AC50 under setting [2] is 17.8 µM [rising, partial curve, poor fit].

As to `O=C(NCc1ccc(Cl)cc1)C1CCN(S(=O)(=O)c2cc([N+](=O)[O-])ccc2Cl)CC1`, the AC50 under setting [1] was 18.4 µM [falling, single point].

As to `O=C1C2ON(c3ccc(Br)cc3)C(c3cccnc3)C2C(=O)N1C1CCCCC1` (stereo not given), the AC50 under setting [1] was 23.1 µM [rising, single point].

Turning to `CCCCSc1nc2sc3c(c2c(=O)n1-c1ccc(OC)cc1)CCN(C)C3`, the AC50 under setting [1] was 14.1 µM [rising, single point].

For `C/C(CCc1ccc2c(c1)OCO2)=N\NC(=O)c1ccccc1Cl`, the AC50 under setting [1] was 23.1 µM [falling, partial curve].

Turning to `NC(=O)c1ccc(NC(=O)c2ccc3c(c2)OCO3)cc1`, under setting [1], the half-maximal activity concentration (AC50) was 0.82 µM [falling, full curve].

On to `O=C(c1cnn(C(=O)c2ccccc2F)c1)c1ccccc1O`, for which the AC50 under setting [1] is 10.3 µM [falling, partial curve, poor fit].

In the case of `Cc1ccc(C(CNS(=O)(=O)c2ccc(Br)cc2)N2CCN(C)CC2)cc1` (stereo not given), under setting [1], the AC50 was 10.3 µM [falling, single point].

For the molecule `Oc1ccccc1-c1nc(NCCN2CCOCC2)c2ccccc2n1`, the AC50 is 20 µM [falling, single point] under setting [1] and 12.6 µM [rising, partial curve, poor fit] under setting [2].

`CS(=O)(=O)N(CC(=O)Nc1ccc(S(=O)(=O)N2CCCC2)cc1)c1cccc(F)c1`: under setting [1], the AC50 was 0.112 µM [falling, full curve, poor fit].

Regarding `CCCC1(c2ccccc2)NC(=O)N(CC(=O)Nc2sc(-c3ccccc3)cc2C(=O)OCC)C1=O` (stereo not given), the concentration at half-maximal activity (AC50) under setting [1] is 18.4 µM [rising, partial curve, poor fit].

`COc1ccc2[nH]c3c(c2c1)CCN1C(=O)C(CC(=O)NCCC2=CCCCC2)C[C@H](C(=O)N(C(C)C)C(C)C)[C@@]31C` (stereo not given in full): the AC50 under setting [1] is 18.4 µM [falling, partial curve].
